Measured values reported in the supplement of paper PMC5949888.
Most values lie at the floor of the assay. Slopes are relative: functional sequences can read slightly below zero.

Test system: Saccharomyces cerevisiae PS128 hsf1 delta, HSF1(1-493) fusion
Experiment: growth estimate (transactivation domain function in HSF1 fusion, heat-shock survival) (a.u. (slope of normalised read count over time)); higher = stronger growth at 37°C, i.e. more transactivation activity
Conditions: library: random library

| Substance | growth estimate |
| --- | --- |
| SQRRSEMPSTRIVSVVTVRR | < -0.25 |
| SQRSVCALIKLLTADAKSME | < -0.25 |
| SQRSVRIRRTVRSIPDRHFR | < -0.25 |
| SQS | < -0.25 |
| SQSITATGLSWGQGGTWGRA | < -0.25 |
| SQSKHVGVAPRPPRDPGTVR | < -0.25 |
| SQSLHSSDGLELCVRTQKGR | < -0.25 |
| SQTAAK | < -0.25 |
| SQTLEGPL | < -0.25 |
| SQTLGTGLFSLSNGRRA | < -0.25 |
| SQVIDKPKGLRKPCYHSYHT | < -0.25 |
| SQVKFGITGGLVEHGSFRGE | < -0.25 |
| SQVYRLPLS | < -0.25 |
| SQW | < -0.25 |
| SQWASRVHVRYILERVSPLR | < -0.25 |
| SQWL | < -0.25 |
| SQY | < -0.25 |
| SQYIRCHTSCRGDTRAF | -0.212 |
| SRACRVEG | < -0.25 |
| SRACRVRVGALLWWFYAPPI | < -0.25 |
| SRAIAFRSHAGVHLEPRVFS | < -0.25 |
| SRAMI | < -0.25 |
| SRAPMQPVISIVCTLHDPGV | < -0.25 |
| SRASCRE | < -0.25 |
| SRAVTSLVNSFASIAAHVVL | < -0.25 |

| Substance | growth estimate |
| --- | --- |
| SRAWFPWYTVETMWV | < -0.25 |
| SRAWHTSAGIPCKSERQATP | < -0.25 |
| SRCDLVENGLQVASVTTSCC | < -0.25 |
| SRCKGPENFTGWQLLFLQRV | < -0.25 |
| SRCTGRRVP | < -0.25 |
| SRCYIRRLR | < -0.25 |
| SRDEG | < -0.25 |
| SRDLPHGRTFRNILRQVAI | < -0.25 |
| SRDPDSNRVATANGRPRVRS | < -0.25 |
| SRDREPEVKRPCLLDITCLY | < -0.25 |
| SRDRHCDDLRGLKVWGRSPH | < -0.25 |
| SRDS | -0.246 |
| SRE | < -0.25 |
| SREIGVHRC | < -0.25 |
| SRENGIVALWKIQHLIQYRQ | < -0.25 |
| SRFGQVNIIR | < -0.25 |
| SRFKFAG | < -0.25 |
| SRFPMNDMIAILSCIAGCSC | < -0.25 |
| SRFSDPLVGLRQRGSTRLFR | < -0.25 |
| SRGESPLQSVTTVSWTRDLD | < -0.25 |
| SRGGNN | < -0.25 |
| SRGHSPWYDA | < -0.25 |
| SRGLGSSE | < -0.25 |
| SRGQYARSHLVNPV | < -0.25 |
| SRGRSVRTS | < -0.25 |

| Substance | growth estimate |
| --- | --- |
| SRGSPLSPENSVKR | < -0.25 |
| SRHE | < -0.25 |
| SRHITSFRGIQAGNGTLGPE | < -0.25 |
| SRHYRFEERWSSTMGTQPPI | < -0.25 |
| SRICLGLFG | 0.0189 |
| SRIPPRQGKSCQPILRL | < -0.25 |
| SRITETWTSCDQP | < -0.25 |
| SRIVTSISYAGTAPGA | < -0.25 |
| SRIYLAIAITAVDASLPGRT | < -0.25 |
| SRKESGCSICQHRCCKSSVE | < -0.25 |
| SRKLLSYQGPCFEALLSSAV | < -0.25 |
| SRKLVYAIGCVGTKFGTPRG | < -0.25 |
| SRKRCCAVQYGANGSRSAGK | < -0.25 |
| SRKRHSSVCTGGHGLLS | < -0.25 |
| SRLDRILLWL | < -0.25 |
| SRLELSGMLPDR | < -0.25 |
| SRLQLFPSIAGCCF | < -0.25 |
| SRLQV | < -0.25 |
| SRLSDRDRNVAIAESQKSHY | -0.246 |
| SRLSTMAERTPSRF | < -0.25 |
| SRLTELLKHEVLSGTQVVGS | < -0.25 |
| SRLVIAGEIAAFKVPSRVSS | < -0.25 |
| SRLVVSSGSYDDRRNSLKAG | < -0.25 |
| SRLYSFTTELLLKIGRKDKS | < -0.25 |
| SRMGLFRL | < -0.25 |

Some of the entries so far, field by field:
SRFGQVNIIR
  growth estimate: < -0.25
SRFKFAG
  growth estimate: < -0.25
SRFPMNDMIAILSCIAGCSC
  growth estimate: < -0.25
SRFSDPLVGLRQRGSTRLFR
  growth estimate: < -0.25

Later entries.

| Substance | growth estimate |
| --- | --- |
| SRMPFQYK | < -0.25 |
| SRNAFFPGERERGCLKTARG | < -0.25 |
| SRPER | < -0.25 |
| SRPFQVGPPKQVERA | < -0.25 |
| SRPNSAVR | < -0.25 |
| SRPRLHLASPLNERIRPAC | < -0.25 |
| SRPRRARGDEIGIGGCNPAS | < -0.25 |
| SRQRGICGCDAGEQLLIASI | < -0.25 |
| SRRCASEH | < -0.25 |
| SRRDHS | < -0.25 |
| SRRICVWGGPCVYGVDGGRV | < -0.25 |
| SRRIKAVLGSGSAER | < -0.25 |
| SRRRISLPRPNG | < -0.25 |
| SRRSADESSPYTAGVLDQA | < -0.25 |
| SRRSSQFAI | < -0.25 |
| SRSGLCEDEARSCICSPVLA | < -0.25 |
| SRSIPVSTWVLRTCVRDKTR | < -0.25 |
| SRSRGLQAPMLGCMKDRFTS | < -0.25 |
| SRSRNRGGLTSGCARDGDDP | < -0.25 |
| SRSS | < -0.25 |
| SRTETPGY | < -0.25 |
| SRTKDW | < -0.25 |
| SRVFLTRR | < -0.25 |
| SRVHMPFFLSTVAYWI | < -0.25 |
| SRVIRSIGGS | < -0.25 |

Fetched one by one from the list above:

| Substance | growth estimate |
| --- | --- |
| SRSIPVSTWVLRTCVRDKTR | < -0.25 |
| SRKLVYAIGCVGTKFGTPRG | < -0.25 |
| SRRSSQFAI | < -0.25 |
| SQVYRLPLS | < -0.25 |

Remaining list, next part:

| Substance | growth estimate |
| --- | --- |
| SRVLSSHAPNMEPTELGPRM | < -0.25 |
| SRVPGC | < -0.25 |
| SRW | < -0.25 |
| SRWLVF | < -0.25 |
| SRYRDNQFYAIGAVKLGIIS | < -0.25 |
| SRYTLYS | < -0.25 |
| SRYVRSPFKMGLGALATIGG | < -0.25 |
| SSAKKVISINLRYQIAVGYS | < -0.25 |
| SSAKRAGQDLASPGSRRA | < -0.25 |
| SSALLIQSKGI | < -0.25 |
| SSAMLYGNVWLSVLRGPTYQ | -0.172 |
| SSARFRP | < -0.25 |
| SSASPFGAGLPRVLIHVGRT | < -0.25 |
| SSAVQ | < -0.25 |
| SSAYIGVCWEGR | < -0.25 |
| SSCG | < -0.25 |
| SSCPKGNGDSIGMSPPNVGA | < -0.25 |
| SSCRGVRAKRDANPAMGGYR | < -0.25 |
| SSCRLAFGHARCMVG | < -0.25 |
| SSCVVGARVLGSRS | < -0.25 |
| SSDAAKGEWPHMKQGDLPVV | < -0.25 |
| SSDCDVVT | < -0.25 |
| SSDPP | < -0.25 |
| SSDQRDFTCLIVSVGSFAYS | < -0.25 |
| SSDVVP | < -0.25 |

| Substance | growth estimate |
| --- | --- |
| SSE | < -0.25 |
| SSEEDFAFIRRSAWTRTWCG | < -0.25 |
| SSEIVPWVI | < -0.25 |
| SSESAAPTNNIKLYKGSP | < -0.25 |
| SSFGRAAWLPFYDYLGHDDI | 0.0387 |
| SSFTW | < -0.25 |
| SSG | < -0.25 |
| SSGGGKHAGRDASEVS | < -0.25 |
| SSGKPLRSGRATSCCIGGPS | < -0.25 |
| SSGLYWIPLRVFSRGGVGFR | < -0.25 |
| SSGRAC | < -0.25 |
| SSGSESGTTHRLY | -0.25 |
| SSGSLNASVGVSPSIY | < -0.25 |
| SSGSSSFFGHLQEVSIYPDL | -0.243 |
| SSHC | < -0.25 |
| SSHITLHPQRHTRWVTPLNV | < -0.25 |
| SSHQVSITGPRRFRKRQGRP | < -0.25 |
| SSIKVLVQARSLYAA | < -0.25 |
| SSIRRGVRQPRLNAKRDNC | < -0.25 |
| SSKAPYCEVRDHRHRVWIRP | < -0.25 |
| SSKRYNPHVSTGRNANRHTL | < -0.25 |
| SSKSSLVHGRWRGIAVATST | < -0.25 |
| SSLDVVCHSRTCGESRPRKG | < -0.25 |
| SSLGQMTLNLADWLDVAIVE | < -0.25 |
| SSLLCPSWLRGVRSRST | < -0.25 |

| Substance | growth estimate |
| --- | --- |
| SSLLGALGYRANPPMALHTC | < -0.25 |
| SSLLGRTVS | < -0.25 |
| SSLLSLA | < -0.25 |
| SSLRLGGANPGAGQSYSRCR | < -0.25 |
| SSLSKHPTVSGSYRVAECTV | < -0.25 |
| SSLVDRRYPKGTSRTMQLQM | < -0.25 |
| SSLVFRCVSLRLEAA | < -0.25 |
| SSMCPELIGPTLGSRQSSQD | < -0.25 |
| SSMLEGDLGRCPNVCHLRSS | < -0.25 |
| SSN | < -0.25 |
| SSPLMWHTIPTSEHQNSEAG | < -0.25 |
| SSPPHTC | < -0.25 |
| SSPTAIRGAVPFSFK | < -0.25 |
| SSQEVVIRGKGLRW | -0.213 |
| SSQISLYPSIHSGIYPFFHV | < -0.25 |
| SSRKYTLAIRRGSDFAIPGP | < -0.25 |
| SSRRARLSHRPSPYRRRAAS | < -0.25 |
| SSSDVILGREVMFKGERMPP | < -0.25 |
| SSSHGKRLPN | -0.226 |
| SSSIPGHRMWAELWLWNYEE | < -0.25 |
| SSSPATKSPLVEELVSWAVG | < -0.25 |
| SSSRGRISHLTGFSIVRIKA | < -0.25 |
| SSSVRKGN | -0.243 |
| SSTRVIQNAPILHTTRQKF | < -0.25 |
| SSVA | -0.25 |

Copied from the list:
Entry of SSSIPGHRMWAELWLWNYEE under growth estimate: < -0.25
Entry of SSQEVVIRGKGLRW under growth estimate: -0.213
Entry of SSPLMWHTIPTSEHQNSEAG under growth estimate: < -0.25
Entry of SSSRGRISHLTGFSIVRIKA under growth estimate: < -0.25

The list continues.

| Substance | growth estimate |
| --- | --- |
| SSVCMYCSLEFMHRSYAGTR | < -0.25 |
| SSVGLEGG | < -0.25 |
| SSVQGALAVCETLRCAKRVR | < -0.25 |
| SSVRHQPEHDIIWGCGLNCQ | < -0.25 |
| SSVSYL | < -0.25 |
| SSWGRGNNVLVSGVIMWNSR | < -0.25 |
| SSWISSARLAVV | < -0.25 |
| SSYQAATVISVNQNSLGMTP | < -0.25 |
| STAGTAKIVAWLAGSSLLPC | < -0.25 |
| STAIVLYQTQRSAFPSITWF | < -0.25 |
| STALPCFHSP | < -0.25 |
| STARLADRVGLSERRALCIM | < -0.25 |
| STCRNEYTFQGFC | < -0.25 |
| STENL | < -0.25 |
| STETGVLPGYAHSEALTAGP | < -0.25 |
| STEVRTRALDNRY | < -0.25 |
| STGDLAPQTQLAVVGPTLVS | < -0.25 |
| STGRFGVPPQFIKSNA | < -0.25 |
| STGTLGSYSIYGKSIIAPDR | < -0.25 |
| STGVCLLLLRTKPNSRGRRK | < -0.25 |
| STIAVQSHWGTTWVYLVVPY | < -0.25 |
| STIHSLVLINLLSTPGTA | < -0.25 |
| STIKAVRALTQRLRSVRCNS | < -0.25 |
| STKGSAQG | < -0.25 |
